{
  "source": "ChEMBL document CHEMBL3352635",
  "about": "“Gastric-sparing nitric oxide-releasable 'true' prodrugs of aspirin and naproxen” (Bioorg Med Chem Lett, 2014)",
  "assay": "in vivo",
  "conditions": "Sprague-Dawley, rat, plasma, po, 10 mg/kg",
  "data": [
    {"compound": "COc1ccc2cc([C@H](C)C(=O)O)ccc2c1", "note": "[NAPROXEN]", "values": [
      {"measurement": "AUC", "value": 208, "unit": "µg·h/mL"}
    ]}
  ]
}
